From patent US20180228775A1, “METHODS OF TREATING CANCER” (Dana-Farber Cancer Institute, Inc., priority 2014, published 2018)
Entries after “also recorded” stand apart in the source; their conditions may differ. Read-outs that look alike come from different tables or passages of the source. For at least one compound, name, drawing or mass did not settle the structure.

Key:
[1] = tested on: B16 melanomas; assay: Combinatorial immunotherapy GVAX + anti-CTLA-4 with Rosi in B16 challenged mice; format: in vivo; conditions: for survival: Rosi 20 mg/kg/day in drinking water 12-14 days
[2] = tested on: Lewis Lung Carcinoma; assay: Subcutaneous Lewis Lung Carcinoma in GVAX+anti-CTLA-4 treated mice with Rosi; format: in vivo
[3] = tested on: Treg; conditions: Rosi in combination with Gemcitabine; cited from earlier work
[4] = tested on: GM-CSF and IL-4 derived human DC; conditions: cited from earlier work
[5] = tested on: vaccine draining lymph node; assay: CD8 and Treg in the vaccine draining lymph node of GVAX mice treated with Rosi; format: in vivo; conditions: Rosi vs DMSO, 6-8 days after vaccination
[6] = tested on: GM-CSF treated human monocytes; assay: CCL17 and CCL22 expression by GM-CSF treated human monocytes (ELISA); format: cell-based; conditions: for CCL17 expression: 10 uM Rosi, 5 days, ELISA
Procedure: CCL17 levels were normalized to the number of monocytes per well.
FIG. 43: Role of PPAR-g in restraining Treg recruitment and expansion is conserved in GM-CSF treated human monocytes.
CCL17 levels were measured using ELISA (DY364, R&D Systems).
In addition, these cultures were treated with DMSO or Rosi.

[7] = tested on: B16 melanomas
[8] = GVAX treated mice, Rosi for 12 days
[9] = absence of PPAR-γ expression in myeloid cells, GVAX + Rosi

CN(CCOc1ccc(CC2SC(=O)NC2=O)cc1)c1ccccn1 (stereo not shown) [Rosi, rosiglitazone]
tumor incidence ([1]; B16, GVAX + anti-CTLA4 treated mice, Rosi 20 mg/kg/day in drinking water): further improved
survival ([1]; B16, GVAX + anti-CTLA4 treated mice): significantly increased; also recorded: improved
survival ([1]; B16, GVAX + anti-CTLA4 treated mice, listed as Rosiglitazone): further improved
efficacy of GVAX+CTLA-4 treatment ([1]; B16, Rosi added to GVAX + anti-CTLA-4): improves; also recorded: potentiates; also recorded: clear benefit
incidence of ulceration [2]: reduces
survival [2]: improves
incidence of ulceration ([2]; listed as Rosiglitazone): modestly but significantly improved
survival ([2]; listed as Rosiglitazone): modestly but significantly improved
Treg numbers [3]: reduced
CD1d expression ([4]; GM-CSF and IL-4 derived human DC): induce
PD-L1 expression ([4]; cultured human DC, reanalysis of publically available datasets): reduced
CD8 frequency in vaccine draining lymph node [5]: no significant differences
Treg frequency in vaccine draining lymph node [5]: no significant differences
number of monocytes per well ([6]; con vs Rosi treated wells): did not differ
CCL22 expression ([6]; human monocytes with GM-CSF): reduced
CCL17 expression ([6]; human monocytes with GM-CSF): reduced
CCL17 expression ([6]; human monocytes with GM-CSF, listed as Rosiglitazone): reduced
size of the challenge tumor ([7]; GVAX alone + Rosi, B16): did not impact; also recorded: no impact
survival ([7]; GVAX alone + Rosi, B16): failed to prolong survival; also recorded: no impact
survival ([7]; GVAX alone + Rosi, B16, listed as Rosiglitazone): no improvement
CD3 infiltration of tumor [7, 8]: improved
absolute numbers of CD8 and Treg in tumor [7, 8]: higher
total CD45+ infiltration of tumor [7, 8]: improved
CD3+ infiltrate of tumor [7, 9]: remained unchanged
CD45+ infiltrate of tumor [7, 9]: remained unchanged
